Test results published in PubChem BioAssay AID2685 (National Center for Advancing Translational Sciences (NCATS), 2010).
Where “and” joins values, the source holds several entries; their conditions need not be identical. Identical values can stand only once. The list shows a part of the results. The main result of the screen is listed elsewhere. These columns were measured beside it and carry no call. Compounds called inactive in the main read-out are mostly missing here. The note in brackets gives the kind of curve behind each potency; many fits are weak.

Experiment: qHTS Assay for Lipid Storage Modulators in Drosophila S3 Cells;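 for cell number change: cells counted by Cell Tracker Red CMTPX staining in the red channel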
Details: BODIPY lipid droplet fluorescence, 18-24 h; for cell number change: measured here: cell count max response, cells fed with added oleic acid
In short: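 Laser-scanning cytometry quantifies lipid droplet accumulation (500–530 nm total intensity; droplet/cell object ratio) in oleic acid-fed (400 uM added) Drosophila S3 cells treated with a concentration series. 20 uM Triacsin C defined 100% inhibition.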

[1] = measured here: cell number channel AC50, cells fed with added oleic acid
[2] = measured here: lipid fluorescence (Fed channel) AC50, cells fed with added oleic acid

Structure (SMILES): O=C(O)c1ccccc1Nc1ccccc1C(=O)O
- cell number change: 8.05%

Structure (SMILES): CCN1C(=O)[C@@H]2[C@@H](c3ccc(-c4ccc(OC)cc4)c(OC)c3)N3CCC[C@@]3(C(=O)OC)[C@@H]2C1=O
- cell number change: 8.78%
- AC50 [1]: 0.0058 µM [falling, full curve, poor fit]
- AC50 [2]: 0.00461 µM [falling, full curve, poor fit]

Structure (SMILES): CC(=O)OC1CCC(OC(C)=O)c2c1n([O-])c(C)c(C)[n+]2=O (centres undefined)
- AC50 [1]: 1.84 µM [falling, single point]
- AC50 [2]: 0.116 µM [falling, full curve, poor fit]

Structure (SMILES): C=CCN(CC=C)CCOc1cc(C)ccc1[N+](=O)[O-]
- cell number change: 30.6%
- AC50 [2]: 13 µM [rising, partial curve]

Structure (SMILES): CCCCNc1nc(-c2ccccc2)nc(-n2ccnc2)n1
- cell number change: -17.8%
- AC50 [1]: 2.31 µM [falling, single point]
- AC50 [2]: 2.59 µM [falling, single point]

Structure (SMILES): Cc1nn(C)c(Cl)c1CN1CCC(n2nccc2NC(=O)C2CCCC2)CC1
- cell number change: 33.2%
- AC50 [1]: 0.231 µM [rising, full curve]

Structure (SMILES): COc1cc(/C=C2\C(=O)ON=C2c2ccccc2)cc(Cl)c1O
- cell number change: 12.3%
- AC50 [2]: 16.4 µM [falling, single point]

Structure (SMILES): O=C(COC(=O)C(Cc1ccccc1)NC(=O)c1ccccc1)c1ccccc1 (centres undefined)
- cell number change: 24.5%

Structure (SMILES): CCc1nccn1S(=O)(=O)c1ccc(OC)c(OC)c1
- cell number change: 1.29%
- AC50 [2]: 8.2 µM [rising, partial curve, poor fit]

Structure (SMILES): CCN(CC)C(=O)c1nn(Cc2ccccc2)c(=O)c2ccccc12
- cell number change: -17%

Structure (SMILES): CCN(CC)CCn1c2c(c(SCC(=O)Nc3ccc(C)c(F)c3)nc1=O)CCC2
- cell number change: -44.2%
- AC50 [1]: 32.6 µM [falling, single point]

Structure (SMILES): O=[N+]([O-])c1ccc(S(=O)(=O)CC(CN2CCCCC2)N2CCCCC2)cc1 (centres undefined)
- cell number change: -50.5%
- AC50 [1]: 5.8 µM [falling, partial curve, poor fit]
- AC50 [2]: 2.59 µM [falling, partial curve, poor fit]

Structure (SMILES): Cc1ccc(S(=O)(=O)N/N=C/c2cccc3nccnc23)cc1
- cell number change: -49.3%
- AC50 [1]: 0.13 µM [falling, full curve]
- AC50 [2]: 0.146 µM [falling, full curve]

Structure (SMILES): O=S(=O)(Nc1ncnc2c1oc1ccccc12)c1ccc(Cl)s1
- cell number change: 31.6%
- AC50 [1]: 29.1 µM [rising, single point]

Structure (SMILES): O=C(O)c1ccc(-c2nc(-c3ccc(Cl)cc3)cs2)cc1
- cell number change: -18.9%
- AC50 [1]: 0.366 µM [falling, full curve]

Structure (SMILES): CC(C)NS(=O)(=O)c1ccc(OCC(=O)Nc2cccc(F)c2)cc1
- cell number change: -20.9%
- AC50 [1]: 0.0164 µM [falling, full curve, poor fit]
- AC50 [2]: 0.82 µM [falling, full curve]

Structure (SMILES): COc1ccc(NC(=O)CN2CCC(NC(=O)c3ccco3)CC2)c([N+](=O)[O-])c1
- cell number change: -4.27%
- AC50 [2]: 3.26 µM [falling, partial curve]

Structure (SMILES): CN(C(=O)CSc1nc2ccccc2s1)c1c(N)n(Cc2ccccc2)c(=O)[nH]c1=O
- cell number change: -31.5%
- AC50 [1]: 6.51 µM [falling, full curve, poor fit]

Structure (SMILES): COc1ccc(CNC(=O)CSc2nc(SC)ns2)cc1
- cell number change: -8.29%
- AC50 [2]: 1.46 µM [rising, single point]

Structure (SMILES): COC(=O)c1[nH]c2c(c1C)C(=O)CCC2
- cell number change: -9.2%

Structure (SMILES): Nc1nc2ccccc2n1/N=C/c1ccc(Br)cc1
- cell number change: -140%
- AC50 [1]: 29.1 µM [falling, single point]
- AC50 [2]: 29.1 µM [falling, single point]

Structure (SMILES): CC(Oc1ccc(Cl)cc1)C(=O)NCC1CCCO1 (centres undefined)
- cell number change: -4.62%

Structure (SMILES): CCn1c(C)nc2cc(S(=O)(=O)C(F)(F)F)ccc21
- cell number change: -1.64%

Structure (SMILES): CC1(C)CC(N2CCCC2)=CC(=[N+]2CCCCCC2)C1
- cell number change: -48.9%
- AC50 [1]: 0.58 µM [falling, full curve, poor fit]
- AC50 [2]: 0.0517 µM [falling, full curve, poor fit]

Structure (SMILES): Cc1ccc(N=Nc2c(C)[nH]n(-c3ccccc3)c2=O)cc1Br
- cell number change: -2.7%
- AC50 [2]: 1.84 µM [falling, partial curve]

Structure (SMILES): COc1cccc(CNC(=O)c2cccnc2Sc2ccccc2)c1
- cell number change: 20%

Structure (SMILES): C=CCn1c(SCc2c(C)noc2C)nc2sc3c(c2c1=O)CCCC3
- cell number change: -32.9%
- AC50 [1]: 14.6 µM [falling, partial curve, poor fit]
- AC50 [2]: 18.4 µM [falling, partial curve]

Structure (SMILES): CCCC(=O)Oc1ccc(-c2nccc(C(OC)OC)n2)cc1
- cell number change: 23.2%
- AC50 [2]: 4.11 µM [rising, single point]

Structure (SMILES): CC(=O)c1ccc(NC(=O)C2CCCO2)cc1 (centres undefined)
- cell number change: 14.4%

Structure (SMILES): COc1ccc(NC(=O)c2cccs2)cc1OC
- cell number change: 2.37%
- AC50 [2]: 7.31 µM [rising, partial curve]

Structure (SMILES): COc1cc2c(OC)cccc2cc1C(=O)O
- cell number change: -14.3%
- AC50 [2]: 5.17 µM [falling, full curve, poor fit]

Structure (SMILES): O=C(O)CCC(=O)Nc1ccc2c(c1)oc1ccccc12
- cell number change: -41%
- AC50 [1]: 9.2 µM [falling, partial curve, poor fit]
- AC50 [2]: 29.1 µM [falling, single point]

Structure (SMILES): COc1ccc(-c2cc(C(F)(F)F)n3nc(C(=O)N4CCN(C(=O)c5ccco5)CC4)cc3n2)cc1
- cell number change: -19.8%
- AC50 [2]: 0.731 µM [rising, full curve]

Structure (SMILES): CCOc1ccccc1NC(=O)N1CCCC1C(=O)Nc1nnc(CC)s1 (centres undefined)
- cell number change: -12.2%
- AC50 [2]: 2.06 µM [falling, full curve, poor fit]

Structure (SMILES): COCc1ccccc1C1=CC(=O)C[C@H](c2ccc(OC)cc2)C1
- cell number change: -20.4%
- AC50 [1]: 1.46 µM [falling, partial curve, poor fit]
- AC50 [2]: 2.06 µM [falling, partial curve]

Structure (SMILES): CCOc1ccc(S(=O)(=O)N2CCOCC2)cc1NC(=O)CN1C(=O)NC(C)(c2ccccc2)C1=O (centres undefined)
- cell number change: -18.8%
- AC50 [2]: 29.1 µM [rising, single point]

Structure (SMILES): COc1ccc2c(c1)c1ncn(CCN3CCNCC3)c(=O)c1n2C
- cell number change: 55.6%
- AC50 [1]: 20.6 µM [rising, partial curve]

Structure (SMILES): COc1ccc(NS(=O)(=O)c2cc(C(=O)O)ccc2C)cc1
- cell number change: -46.2%
- AC50 [1]: 10.3 µM [falling, partial curve]
- AC50 [2]: 5.17 µM [falling, partial curve]

Structure (SMILES): Cc1cccc(Nc2nnc(SCC(=O)NC(=O)Nc3ccc4c(c3)OCCO4)s2)c1
- cell number change: 6.48%
- AC50 [1]: 0.206 µM [rising, full curve, poor fit]
- AC50 [2]: 29.1 µM [falling, single point]

Structure (SMILES): CCOc1ccc(NC(=O)NCCCCc2ccccc2)cc1
- cell number change: -26%
- AC50 [2]: 5.62 µM [rising, full curve, poor fit]

Structure (SMILES): Cc1cc(Br)ccc1NC(=O)CN(C)C(=O)C1CSC2(C)CCC(=O)N12 (centres undefined)
- cell number change: -2.55%
- AC50 [2]: 0.184 µM [rising, full curve, poor fit]

Structure (SMILES): CCc1c(C(=O)N/N=C/c2cccs2)nnn1-c1nonc1N
- cell number change: -31.7%
- AC50 [1]: 5.17 µM [falling, single point]
- AC50 [2]: 29.1 µM [falling, single point]

Structure (SMILES): O=C(Nc1cc(C(F)(F)F)ccc1N1CCOCC1)c1ccc(Cl)nc1
- cell number change: -4.18%
- AC50 [2]: 7.31 µM [rising, partial curve]

Structure (SMILES): C/C(=N\NC(N)=O)c1cccc(Cl)c1
- cell number change: -45.4%
- AC50 [1]: 29.1 µM [falling, single point]
- AC50 [2]: 0.00461 µM [falling, full curve, poor fit]

Structure (SMILES): O=C(NC(=S)Nc1ccc2c(c1)OCCO2)c1cccc(Br)c1
- cell number change: 21.1%

Structure (SMILES): CCCCn1nnc(NC(=O)Cc2ccc(Cl)cc2)n1
- cell number change: -13.3%

Structure (SMILES): O=[N+]([O-])c1cc(Br)c(O)c(C=Nc2ccc(N3CCOCC3)cc2)c1
- cell number change: -9.38%

Structure (SMILES): O=C1CC(N2C(=O)/C(=C/C=C/c3ccccc3)SC2=S)C(=O)N1c1ccccc1 (centres undefined)
- cell number change: 0.5%

Structure (SMILES): Cc1cc2occ(CC(=O)NC3(C)CCS(=O)(=O)C3)c2cc1C (centres undefined)
- cell number change: 10.4%
- AC50 [2]: 11.2 µM [rising, partial curve]

Structure (SMILES): COc1ccc(S(=O)(=O)N2CCCC2C(=O)NCc2ccccc2Cl)cc1 (centres undefined)
- cell number change: 22.1%
- AC50 [2]: 0.731 µM [rising, full curve, poor fit]

Structure (SMILES): Cn1c(=O)c2c(nc(NCCc3ccccc3)n2Cc2ccccc2)n(C)c1=O
- cell number change: -30.5%
- AC50 [1]: 6.51 µM [falling, full curve, poor fit]
- AC50 [2]: 5.17 µM [falling, full curve]

Structure (SMILES): CCC(Oc1ccccc1)C(=O)N(CC)CC(=O)NCc1ccc(F)cc1 (centres undefined)
- cell number change: -75%
- AC50 [1]: 1.84 µM [falling, partial curve]

Structure (SMILES): O=S(=O)(c1cccc(C(F)(F)F)c1)N(CCCN1CCOCC1)Cc1cccs1
- cell number change: 47.1% and 32.6%
- AC50 [1]: 29.1 µM [rising, single point] and 16.4 µM [rising, single point]
- AC50 [2]: 29.1 µM [rising, single point] and 29.1 µM [falling, single point]

Structure (SMILES): Cc1nc(NCCc2cnc[nH]2)c2oc3ccccc3c2n1
- cell number change: -8.88%
- AC50 [2]: 2.06 µM [rising, full curve, poor fit]

Structure (SMILES): Cc1ccc(C(=O)OCC(=O)N2CC(C)OC(C)C2)cc1 (centres undefined)
- cell number change: 12.6%
- AC50 [2]: 9.2 µM [rising, partial curve]

Structure (SMILES): CC1(C(=O)OCC(=O)Nc2ccccc2)CC1(Cl)Cl (centres undefined)
- cell number change: -13.8%
- AC50 [2]: 29.1 µM [falling, single point]

Structure (SMILES): CCCC(C(=O)Nc1cccc(S(=O)(=O)N2CCCC2)c1)c1ccccc1 (centres undefined)
- cell number change: 4.15%

Structure (SMILES): N#Cc1c(Cl)nc(-c2ccncc2)nc1-c1ccccc1
- cell number change: 16.4%
- AC50 [2]: 6.51 µM [falling, single point]
